Experimental data: PubChem BioAssay AID493014 (National Center for Advancing Translational Sciences (NCATS), 2011)
This is one part of the list. The main result of the screen is listed elsewhere. These columns were measured beside it and carry no call. The list favours compounds with an active or inconclusive main result. Words in brackets tell the shape of the fitted curve; partial curves, single points and poor fits give uncertain potencies.

experiment: qHTS Assay to Find Inhibitors of Chronic Active B-Cell Receptor Signaling; details: ABC-DLBCL IkBa-CBG/CBR reporter, luminescence ratio (green luciferase fused to IkBa over red control in TMD8 lymphoma cells), 4 h; measured here: CBR red luminescence, cell number
Outline: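 Cell line TMD8 (human ABC DLBCL), stably expressing tet-inducible CBG68-IkBa fusion and CBR; IMDM/0.5% FBS; cpd up to 46 uM; dox induction, 4 h, 37C/5% CO2; dual luminescence; green/red ratio; MG132 control.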

SMILES | AC50
COc1ccc(NC(=O)CSCC(=O)N(C)Cc2ccc(Cl)c(Cl)c2)cc1 | 9.2 µM [falling, partial curve, poor fit]
Cc1cnc(NC(=O)c2cc3c(s2)CCCC3)s1 | 8.2 µM [falling, partial curve, poor fit]
COc1ccc(/C=N/NC(=O)c2[nH]ncc2Br)c(OC)c1 | 11.6 µM [falling, partial curve, poor fit]
COc1ccc(CN2CCc3c([nH]c4ccccc34)C2)cc1Br | 12.6 µM [falling, single point]
CC(NC(=O)c1ccco1)C(=O)OCc1cccc(C(F)(F)F)c1 (stereo not drawn) | 0.116 µM [falling, partial curve, poor fit]
Fc1ccc(-c2cnc(-c3cccs3)o2)cc1 | 1.26 µM [rising, full curve]
COc1cc(/C=N/n2nnnc2N)ccc1OCC#N | 35.5 µM [rising, partial curve, poor fit]
CCOC(=O)c1c(NC(=O)CCC(=O)O)sc2c1CCCCC2 | 16.4 µM [falling, single point]
CC(CNC(=O)CCC(=O)N1CCOc2ccc(Cl)cc21)c1ccccc1 (stereo not drawn) | 14.1 µM [falling, partial curve, poor fit]
CC[C@]12c3[nH]c4cc(CCC(=O)N(C)C)ccc4c3CCN1C(=O)[C@@H](CC(=O)NCC13CC4CC(CC(C4)C1)C3)C[C@@H]2C(=O)N1CCN(C(=O)C2CC2)CC1 | 29.1 µM [falling, single point]
CC(NC(=O)CN(C)Cc1nc2ccccc2c(=O)[nH]1)c1ccccc1 (stereo not drawn) | 0.82 µM [falling, full curve, poor fit]
CCCCC1=CC2=CC(=O)C(C)(OC(=O)CC)C(=O)C2=CN1Cc1ccc(OC)cc1 (stereo not drawn) | 17.8 µM [rising, single point]
Cc1ccc(-c2nc3ccccc3o2)cc1NC(=S)NC(=O)c1cccs1 | 2.82 µM [rising, full curve, poor fit]
COc1ccc(-n2nc3cc(C)c(N)c(Br)c3n2)cc1 | 7.08 µM [rising, partial curve]
Cc1cccc(NC(=O)Cc2c(F)cccc2Cl)n1 | 35.5 µM [falling, partial curve, poor fit]
COc1ccccc1Oc1ccnc2cc(Cl)ccc12 | 6.31 µM [falling, full curve]
CCOC(=O)c1cc(C)n(-c2c(C)n(C)n(-c3ccccc3)c2=O)c1C | 1.03 µM [falling, full curve, poor fit]
COc1ccc(S(=O)(=O)N2CCCC2CNC(=O)C(=O)NCCc2ccccc2)cc1 (stereo not drawn) | 29.1 µM [rising, single point]

A few values from the list:
Entry of CCOC(=O)c1cc(C)n(-c2c(C)n(C)n(-c3ccccc3)c2=O)c1C under AC50: 1.03 µM [falling, full curve, poor fit]
Entry of COc1ccc(-n2nc3cc(C)c(N)c(Br)c3n2)cc1 under AC50: 7.08 µM [rising, partial curve]
